Test system: Bacillus anthracis spores
Assay type: cell-based, Bacillus anthracis (Sterne)

## CCCCCCCCCCCCCCCC[n+]1ccccc1 [cetylpyridinium chloride]
  inhibition of spore growth (kill): 98.6%

From US20050148254A1, “Light-activated biocidal polyelectrolytes” (priority 2003, published 2005)
